This is one part of the list. Most values lie at the level of the controls, where differences are scatter.
compound: CN[C@@H]1C[C@H]2O[C@@](C)([C@@H]1OC)n1c3ccccc3c3c4c(c5c6ccccc6n2c5c31)C(=O)NC4 [staurosporine]; test: log2 fold change of tryptic peptide abundance, ligand vs vehicle (limited proteolysis) (log2 ratio); higher = more trypsin-susceptible (destabilized); conditions: ligand concentration: 20 uM; sample: K562 cleared lysate; digestion: 4 min, 22 C (HT-PELSA RT4min, Orbitrap Astral)

The chains behind the UniProt entries cited, without tags or fusion partners. Where a name states a change or a piece, a line headed by the entry shows the natural chain unless it says otherwise.
UniProt Q9H8U3: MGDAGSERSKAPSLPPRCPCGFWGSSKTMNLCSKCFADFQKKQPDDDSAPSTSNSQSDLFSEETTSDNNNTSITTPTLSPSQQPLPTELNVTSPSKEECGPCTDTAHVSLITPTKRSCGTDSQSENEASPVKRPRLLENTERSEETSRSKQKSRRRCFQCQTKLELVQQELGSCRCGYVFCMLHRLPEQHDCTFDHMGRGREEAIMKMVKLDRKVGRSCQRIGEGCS
UniProt Q9H7X7: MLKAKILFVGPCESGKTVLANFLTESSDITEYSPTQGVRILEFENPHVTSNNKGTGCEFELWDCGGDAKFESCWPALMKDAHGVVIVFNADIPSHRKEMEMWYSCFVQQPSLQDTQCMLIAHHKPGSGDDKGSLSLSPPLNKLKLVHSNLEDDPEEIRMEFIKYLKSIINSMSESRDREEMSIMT
UniProt Q9H7B4: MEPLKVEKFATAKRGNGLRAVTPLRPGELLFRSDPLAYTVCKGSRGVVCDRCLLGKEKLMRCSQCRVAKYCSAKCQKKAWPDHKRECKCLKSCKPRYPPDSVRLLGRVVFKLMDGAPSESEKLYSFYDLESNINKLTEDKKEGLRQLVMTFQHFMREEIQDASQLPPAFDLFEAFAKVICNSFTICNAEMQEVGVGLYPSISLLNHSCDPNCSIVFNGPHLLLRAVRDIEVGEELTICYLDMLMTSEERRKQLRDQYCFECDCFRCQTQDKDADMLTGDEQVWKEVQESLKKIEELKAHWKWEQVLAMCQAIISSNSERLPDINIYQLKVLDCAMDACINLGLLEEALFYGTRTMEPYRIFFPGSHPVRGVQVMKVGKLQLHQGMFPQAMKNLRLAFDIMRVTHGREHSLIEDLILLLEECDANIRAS
UniProt Q9HC52: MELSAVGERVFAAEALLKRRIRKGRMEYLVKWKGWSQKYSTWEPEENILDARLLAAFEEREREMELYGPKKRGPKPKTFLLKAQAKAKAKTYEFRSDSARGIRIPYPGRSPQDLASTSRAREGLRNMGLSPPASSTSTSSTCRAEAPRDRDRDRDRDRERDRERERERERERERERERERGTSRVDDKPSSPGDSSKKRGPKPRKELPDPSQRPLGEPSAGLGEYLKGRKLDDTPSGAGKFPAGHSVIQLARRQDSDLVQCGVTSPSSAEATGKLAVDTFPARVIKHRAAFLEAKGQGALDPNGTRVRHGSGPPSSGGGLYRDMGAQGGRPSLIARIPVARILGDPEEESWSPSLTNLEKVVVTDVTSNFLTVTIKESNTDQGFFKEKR
UniProt Q9HAW0, whole entry: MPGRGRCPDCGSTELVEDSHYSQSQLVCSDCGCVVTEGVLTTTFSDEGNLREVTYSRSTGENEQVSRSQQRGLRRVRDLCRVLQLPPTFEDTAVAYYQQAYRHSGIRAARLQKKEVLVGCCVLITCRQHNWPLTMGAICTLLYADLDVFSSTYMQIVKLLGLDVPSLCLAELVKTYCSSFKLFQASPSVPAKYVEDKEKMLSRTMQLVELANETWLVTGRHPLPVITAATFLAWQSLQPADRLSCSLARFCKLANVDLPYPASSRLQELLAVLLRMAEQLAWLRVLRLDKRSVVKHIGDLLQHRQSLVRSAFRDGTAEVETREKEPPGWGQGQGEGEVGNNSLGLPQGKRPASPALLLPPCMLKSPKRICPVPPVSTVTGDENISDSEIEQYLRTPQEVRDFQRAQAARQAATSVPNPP
UniProt Q9H5L6: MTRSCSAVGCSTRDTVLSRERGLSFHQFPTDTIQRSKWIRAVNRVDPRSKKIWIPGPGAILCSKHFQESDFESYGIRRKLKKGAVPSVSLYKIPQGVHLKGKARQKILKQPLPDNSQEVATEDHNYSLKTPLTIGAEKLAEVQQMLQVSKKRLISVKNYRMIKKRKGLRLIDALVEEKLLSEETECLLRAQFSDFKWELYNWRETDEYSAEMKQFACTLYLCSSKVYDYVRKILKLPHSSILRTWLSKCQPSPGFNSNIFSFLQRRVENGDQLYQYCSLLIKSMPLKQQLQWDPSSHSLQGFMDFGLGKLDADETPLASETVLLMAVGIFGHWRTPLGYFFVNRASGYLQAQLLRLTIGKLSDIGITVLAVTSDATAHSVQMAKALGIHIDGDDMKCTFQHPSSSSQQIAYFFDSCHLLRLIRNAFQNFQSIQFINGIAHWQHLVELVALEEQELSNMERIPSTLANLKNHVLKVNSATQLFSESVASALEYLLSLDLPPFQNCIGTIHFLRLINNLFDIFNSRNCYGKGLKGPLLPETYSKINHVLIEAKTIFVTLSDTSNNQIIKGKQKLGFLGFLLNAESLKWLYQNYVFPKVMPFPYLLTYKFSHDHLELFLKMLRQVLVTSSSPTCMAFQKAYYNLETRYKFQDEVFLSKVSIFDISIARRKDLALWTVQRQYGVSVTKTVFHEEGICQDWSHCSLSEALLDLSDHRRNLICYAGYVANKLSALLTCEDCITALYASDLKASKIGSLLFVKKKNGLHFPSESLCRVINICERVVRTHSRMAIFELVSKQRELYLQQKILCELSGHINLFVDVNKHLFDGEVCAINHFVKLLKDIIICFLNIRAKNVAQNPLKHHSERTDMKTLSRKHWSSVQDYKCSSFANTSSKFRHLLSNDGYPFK
UniProt Q9H7U1: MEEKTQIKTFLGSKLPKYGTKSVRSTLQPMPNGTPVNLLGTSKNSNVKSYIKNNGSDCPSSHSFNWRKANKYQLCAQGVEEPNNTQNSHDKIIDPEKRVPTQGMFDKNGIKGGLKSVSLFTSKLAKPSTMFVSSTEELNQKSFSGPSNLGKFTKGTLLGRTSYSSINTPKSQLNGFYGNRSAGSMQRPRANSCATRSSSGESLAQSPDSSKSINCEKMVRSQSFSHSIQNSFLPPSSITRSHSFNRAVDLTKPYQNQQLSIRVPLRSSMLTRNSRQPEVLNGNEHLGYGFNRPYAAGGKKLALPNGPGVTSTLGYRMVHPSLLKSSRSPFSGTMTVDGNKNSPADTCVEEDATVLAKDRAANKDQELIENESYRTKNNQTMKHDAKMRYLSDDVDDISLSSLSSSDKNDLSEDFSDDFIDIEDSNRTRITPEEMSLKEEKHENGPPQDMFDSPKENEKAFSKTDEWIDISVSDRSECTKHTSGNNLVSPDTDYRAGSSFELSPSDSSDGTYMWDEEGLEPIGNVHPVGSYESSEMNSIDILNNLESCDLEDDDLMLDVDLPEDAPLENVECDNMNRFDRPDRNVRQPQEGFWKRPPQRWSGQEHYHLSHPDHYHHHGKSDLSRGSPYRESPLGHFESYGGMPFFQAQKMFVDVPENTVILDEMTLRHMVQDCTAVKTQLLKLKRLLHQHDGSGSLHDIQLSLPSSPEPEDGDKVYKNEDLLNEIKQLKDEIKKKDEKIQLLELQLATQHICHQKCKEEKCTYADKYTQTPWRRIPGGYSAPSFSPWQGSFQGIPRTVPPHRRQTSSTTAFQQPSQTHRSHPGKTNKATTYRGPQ
UniProt Q9H9V9: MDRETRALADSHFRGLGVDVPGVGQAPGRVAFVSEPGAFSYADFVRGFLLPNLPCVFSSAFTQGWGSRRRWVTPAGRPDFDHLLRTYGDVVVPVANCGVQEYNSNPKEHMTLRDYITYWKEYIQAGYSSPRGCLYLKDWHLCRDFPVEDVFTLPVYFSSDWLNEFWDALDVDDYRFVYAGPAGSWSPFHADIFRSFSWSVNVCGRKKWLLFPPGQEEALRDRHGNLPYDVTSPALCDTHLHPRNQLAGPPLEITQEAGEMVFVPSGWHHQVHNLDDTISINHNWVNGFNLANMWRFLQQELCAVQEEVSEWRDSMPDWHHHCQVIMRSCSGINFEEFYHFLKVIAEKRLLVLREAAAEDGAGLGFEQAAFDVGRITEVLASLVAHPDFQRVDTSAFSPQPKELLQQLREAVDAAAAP
UniProt Q9H5H4: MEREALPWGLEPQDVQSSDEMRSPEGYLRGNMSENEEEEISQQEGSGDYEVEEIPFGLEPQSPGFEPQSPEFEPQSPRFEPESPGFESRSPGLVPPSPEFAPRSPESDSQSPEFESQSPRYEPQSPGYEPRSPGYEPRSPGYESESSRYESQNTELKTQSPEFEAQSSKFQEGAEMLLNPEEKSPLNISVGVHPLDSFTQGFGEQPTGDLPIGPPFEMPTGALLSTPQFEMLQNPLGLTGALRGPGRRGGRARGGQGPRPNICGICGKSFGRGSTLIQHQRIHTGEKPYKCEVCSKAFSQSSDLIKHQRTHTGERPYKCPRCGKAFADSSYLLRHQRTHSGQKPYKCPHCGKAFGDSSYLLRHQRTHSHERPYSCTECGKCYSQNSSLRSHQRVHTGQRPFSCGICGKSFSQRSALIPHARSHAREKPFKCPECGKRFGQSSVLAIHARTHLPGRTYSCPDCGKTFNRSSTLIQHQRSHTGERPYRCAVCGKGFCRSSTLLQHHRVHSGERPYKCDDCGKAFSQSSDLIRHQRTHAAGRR
UniProt Q9H7Z3: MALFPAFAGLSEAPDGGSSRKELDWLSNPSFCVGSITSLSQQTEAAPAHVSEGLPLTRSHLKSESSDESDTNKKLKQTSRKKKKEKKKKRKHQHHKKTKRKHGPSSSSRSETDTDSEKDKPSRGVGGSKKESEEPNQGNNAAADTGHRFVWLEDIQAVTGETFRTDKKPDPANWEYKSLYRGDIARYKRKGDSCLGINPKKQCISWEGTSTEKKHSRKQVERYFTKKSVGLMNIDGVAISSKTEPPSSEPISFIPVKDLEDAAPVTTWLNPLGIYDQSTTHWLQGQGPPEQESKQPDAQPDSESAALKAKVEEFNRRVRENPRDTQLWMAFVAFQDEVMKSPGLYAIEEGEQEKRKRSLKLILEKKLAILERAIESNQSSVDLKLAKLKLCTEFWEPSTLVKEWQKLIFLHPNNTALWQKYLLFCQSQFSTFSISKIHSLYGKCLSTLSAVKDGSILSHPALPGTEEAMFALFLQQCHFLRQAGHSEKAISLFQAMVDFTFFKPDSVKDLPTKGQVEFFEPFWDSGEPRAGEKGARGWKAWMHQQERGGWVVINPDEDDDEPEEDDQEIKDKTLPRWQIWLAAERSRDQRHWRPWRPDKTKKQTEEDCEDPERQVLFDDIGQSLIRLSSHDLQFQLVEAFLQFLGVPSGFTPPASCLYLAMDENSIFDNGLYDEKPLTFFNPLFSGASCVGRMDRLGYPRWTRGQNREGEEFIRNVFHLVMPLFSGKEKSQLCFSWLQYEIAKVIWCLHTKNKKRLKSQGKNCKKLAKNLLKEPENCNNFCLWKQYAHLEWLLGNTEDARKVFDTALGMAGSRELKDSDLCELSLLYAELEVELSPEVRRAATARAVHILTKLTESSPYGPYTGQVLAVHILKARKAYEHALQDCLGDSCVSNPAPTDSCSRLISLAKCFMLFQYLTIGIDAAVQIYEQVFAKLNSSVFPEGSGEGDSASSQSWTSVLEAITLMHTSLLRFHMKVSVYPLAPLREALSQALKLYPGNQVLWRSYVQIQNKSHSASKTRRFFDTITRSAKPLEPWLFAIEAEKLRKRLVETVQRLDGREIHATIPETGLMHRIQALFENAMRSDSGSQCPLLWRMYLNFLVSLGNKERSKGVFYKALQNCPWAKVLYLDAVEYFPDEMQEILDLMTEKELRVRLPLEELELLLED

Row | Target | log2 fold change
1 | ZFAND3 (peptide sequence: SKAPSLPPR, peptide start residue: 9) (UniProt Q9H8U3) | -0.338
2 | UniProt Q9H7X7 (peptide sequence: ILEFENPHVTSNNK, peptide start residue: 40) | 0.132
3 | SMYD3 (peptide sequence: AVTPLRPGELLFR, peptide start residue: 20) (UniProt Q9H7B4) | 0.258
4 | UniProt Q9NQ39 (peptide sequence: NVPNLHVMK, peptide start residue: 39) | 0.277
5 | CBX8 (peptide sequence: HGSGPPSSGGGLYR, peptide start residue: 309) (UniProt Q9HC52) | -0.384
6 | BRF2 (peptide sequence: MAEQLAWLR, peptide start residue: 276) (UniProt Q9HAW0) | -0.283
7 | THAP9 (peptide sequence: DLALWTVQR, peptide start residue: 668) (UniProt Q9H5L6) | -0.656
8 | CCSER2 (peptide sequence: HTSGNNLVSPDTDYR, peptide start residue: 480) (UniProt Q9H7U1) | 0.495
9 | JMJD4 (peptide sequence: WVTPAGRPDFDHLLR, peptide start residue: 117) (UniProt Q9H9V9) | 0.207
10 | ZNF768 (peptide sequence: GGQGPRPNICGICGK, peptide start residue: 254) (UniProt Q9H5H4) | 0.198
11 | UniProt Q9H7Z3 (peptide sequence: KGDSCLGINPK, peptide start residue: 190) | 0.42

Quoted from the results shown for reference:
Row | Target | log2 fold change
6 | BRF2 (peptide sequence: MAEQLAWLR, peptide start residue: 276) (UniProt Q9HAW0) | -0.283
7 | THAP9 (peptide sequence: DLALWTVQR, peptide start residue: 668) (UniProt Q9H5L6) | -0.656

Source: the supplement of paper PMC12819154, “High-throughput peptide-centric local stability assay extends protein–ligand identification to membrane proteins, tissues and bacteria” (Nature Structural & Molecular Biology, 2025)
